Measured values reported in doi:10.1101/2025.02.24.639257.
No constants are given. Whether binding was seen depends on the method and setting. Some binding calls cover weakened binding; strength is not graded here. One block for each binder: values may come before it.

Sequences of proteins named here, by UniProt entry; tags and fusion partners are left off. A change or cut given only in a name is not applied to a line headed by its entry.
UniProt P68363, whole entry: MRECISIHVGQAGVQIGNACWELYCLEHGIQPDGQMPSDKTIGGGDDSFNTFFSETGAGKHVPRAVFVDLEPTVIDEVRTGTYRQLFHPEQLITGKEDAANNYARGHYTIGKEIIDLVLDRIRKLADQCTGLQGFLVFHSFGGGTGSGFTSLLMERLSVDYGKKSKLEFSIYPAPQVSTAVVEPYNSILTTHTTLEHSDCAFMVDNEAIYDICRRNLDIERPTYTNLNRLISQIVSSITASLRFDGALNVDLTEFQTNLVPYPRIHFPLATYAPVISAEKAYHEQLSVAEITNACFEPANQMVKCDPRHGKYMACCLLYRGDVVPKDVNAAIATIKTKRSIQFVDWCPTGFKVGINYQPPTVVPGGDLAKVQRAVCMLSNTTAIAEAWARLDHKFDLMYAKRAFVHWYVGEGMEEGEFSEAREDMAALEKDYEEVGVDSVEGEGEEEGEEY

Columns and labels:
[1] = target: human α-tubulin (TUBA-1B) in the microtubule of the cryo-EM structure (human (endogenous in HEK293T)) (UniProt P68363); test: cryo-EM structure
[2] = target: human TTLL11 (tubulin tyrosine ligase-like 11), full length (human) (UniProt Q8NHH1); test: SEC

binding [1]: binds
B1: human TTLL11 (E441G) of the cryo-EM sample (enzyme, UniProt Q8NHH1 121-710)
chain: GENGSQRPVTVDSSKARTSLDALKISIRQLKWKEFPFGRRLPCDIYWHGVSFHDNDIFSGQVNKFPGMTEMVRKITLSRAVRTMQNLFPEEYNFYPRSWILPDEFQLFVAQVQMVKDDDPSWKPTFIVKPDGGCQGDGIYLIKDPSDIRLAGTLQSRPAVVQEYICKPLLIDKLKFDIRLYVLLKSLDPLEIYIAKDGLSRFCTEPYQEPTPKNLHRIFMHLTNYSLNIHSGNFIHSDSASTGSKRTFSSILCRLSSKGVDIKKVWSDIISVVIKTVIALTPELKVFYQSDIPTGRPGPTCFQILGFDILLMKNLKPILLGVNANPSMRIEHEHELSPGVFENVPSLVDEEVKVAVIRDTLRLMDPLKKKRENQSQQLEKPFAGKEDALDGELTSAPDCNANPEAHLPSICLKQVFPKYAKQFNYLRLVDRMANLFIRFLGIKGTMKLGPTGFRTFIRSCKLSSSSLSMAAVDILYIDITRRWNSMTLDQRDSGMCLQAFVEAFFFLAQRKFKMLPLHEQVASLIDLCEYHLSLLDEKRLVCGRGVPSGGRPPHRGPPQEPSPSAQPAGDNPPPRTSCANKLSHPRHTLS

binding [2]: no binding
B2: human TTLL11 (tubulin tyrosine ligase-like 11), full length (enzyme, UniProt Q8NHH1 1-710)
chain: MRRGSSESELAARWEAEAVAAAKAAAKAEAEATAETVAEQVRVDAGAAGEPECKAGEEQPKVLAPAPAQPSAAEEGNTQVLQRPPPTLPPSKPKPVQGLCPHGKPRDKGRSCKRSSGHGSGENGSQRPVTVDSSKARTSLDALKISIRQLKWKEFPFGRRLPCDIYWHGVSFHDNDIFSGQVNKFPGMTEMVRKITLSRAVRTMQNLFPEEYNFYPRSWILPDEFQLFVAQVQMVKDDDPSWKPTFIVKPDGGCQGDGIYLIKDPSDIRLAGTLQSRPAVVQEYICKPLLIDKLKFDIRLYVLLKSLDPLEIYIAKDGLSRFCTEPYQEPTPKNLHRIFMHLTNYSLNIHSGNFIHSDSASTGSKRTFSSILCRLSSKGVDIKKVWSDIISVVIKTVIALTPELKVFYQSDIPTGRPGPTCFQILGFDILLMKNLKPILLEVNANPSMRIEHEHELSPGVFENVPSLVDEEVKVAVIRDTLRLMDPLKKKRENQSQQLEKPFAGKEDALDGELTSAPDCNANPEAHLPSICLKQVFPKYAKQFNYLRLVDRMANLFIRFLGIKGTMKLGPTGFRTFIRSCKLSSSSLSMAAVDILYIDITRRWNSMTLDQRDSGMCLQAFVEAFFFLAQRKFKMLPLHEQVASLIDLCEYHLSLLDEKRLVCGRGVPSGGRPPHRGPPQEPSPSAQPAGDNPPPRTSCANKLSHPRHTLS
modifications: Janelia 549-HALO probe on the HALO tag (in the TIRF assay)
